The other results are listed elsewhere or left out.

Protein sequences, listed by entry. Tags and fused reporters are not part of them. Lines headed by an entry give the natural chain unless they say otherwise; changes in a name come on top.
UniProt Q9Y580: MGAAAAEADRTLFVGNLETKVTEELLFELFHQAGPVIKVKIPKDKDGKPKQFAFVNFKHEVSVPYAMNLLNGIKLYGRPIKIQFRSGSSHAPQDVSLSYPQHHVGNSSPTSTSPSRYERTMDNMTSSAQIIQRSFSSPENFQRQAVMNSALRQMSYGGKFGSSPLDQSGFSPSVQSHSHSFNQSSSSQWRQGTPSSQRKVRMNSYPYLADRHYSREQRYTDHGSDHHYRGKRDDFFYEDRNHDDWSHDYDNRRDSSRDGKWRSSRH
UniProt Q8TDY2, whole entry: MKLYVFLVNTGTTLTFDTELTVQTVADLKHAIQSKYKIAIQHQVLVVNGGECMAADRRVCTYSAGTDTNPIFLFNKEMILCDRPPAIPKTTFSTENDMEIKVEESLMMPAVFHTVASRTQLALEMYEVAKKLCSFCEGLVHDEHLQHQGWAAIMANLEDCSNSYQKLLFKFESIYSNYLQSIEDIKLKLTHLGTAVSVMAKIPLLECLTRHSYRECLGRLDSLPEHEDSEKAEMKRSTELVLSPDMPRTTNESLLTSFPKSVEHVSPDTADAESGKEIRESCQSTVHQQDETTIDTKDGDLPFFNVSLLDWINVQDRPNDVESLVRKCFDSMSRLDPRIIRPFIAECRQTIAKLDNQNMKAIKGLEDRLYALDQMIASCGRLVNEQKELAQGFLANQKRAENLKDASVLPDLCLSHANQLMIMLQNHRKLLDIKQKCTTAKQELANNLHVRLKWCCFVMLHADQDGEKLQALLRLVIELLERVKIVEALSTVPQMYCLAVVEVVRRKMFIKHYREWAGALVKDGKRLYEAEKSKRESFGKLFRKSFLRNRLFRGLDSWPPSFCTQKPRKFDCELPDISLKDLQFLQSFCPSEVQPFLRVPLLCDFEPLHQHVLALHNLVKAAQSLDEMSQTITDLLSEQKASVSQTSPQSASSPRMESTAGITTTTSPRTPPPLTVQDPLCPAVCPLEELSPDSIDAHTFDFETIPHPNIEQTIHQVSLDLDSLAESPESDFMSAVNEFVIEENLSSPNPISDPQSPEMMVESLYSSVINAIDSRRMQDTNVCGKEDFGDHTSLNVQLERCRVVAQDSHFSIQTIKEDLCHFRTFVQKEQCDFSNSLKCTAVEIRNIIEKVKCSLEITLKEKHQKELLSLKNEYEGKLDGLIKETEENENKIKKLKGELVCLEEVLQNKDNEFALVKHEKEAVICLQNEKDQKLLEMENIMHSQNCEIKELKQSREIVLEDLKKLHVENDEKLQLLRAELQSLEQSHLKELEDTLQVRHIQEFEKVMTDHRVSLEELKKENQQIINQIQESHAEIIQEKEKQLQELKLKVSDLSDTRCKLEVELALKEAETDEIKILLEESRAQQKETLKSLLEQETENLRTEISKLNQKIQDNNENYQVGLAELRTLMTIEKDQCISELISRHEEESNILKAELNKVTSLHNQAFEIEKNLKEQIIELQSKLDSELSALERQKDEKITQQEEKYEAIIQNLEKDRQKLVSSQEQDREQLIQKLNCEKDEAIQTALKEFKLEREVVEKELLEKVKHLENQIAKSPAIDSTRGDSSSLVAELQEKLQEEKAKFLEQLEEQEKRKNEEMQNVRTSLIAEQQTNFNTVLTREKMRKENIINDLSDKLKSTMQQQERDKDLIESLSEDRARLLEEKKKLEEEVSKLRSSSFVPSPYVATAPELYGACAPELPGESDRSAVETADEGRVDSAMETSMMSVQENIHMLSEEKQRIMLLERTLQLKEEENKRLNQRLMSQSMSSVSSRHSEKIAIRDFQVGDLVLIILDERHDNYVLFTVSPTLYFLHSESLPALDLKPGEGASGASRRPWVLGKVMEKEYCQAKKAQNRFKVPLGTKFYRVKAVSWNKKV
UniProt P49023, whole entry: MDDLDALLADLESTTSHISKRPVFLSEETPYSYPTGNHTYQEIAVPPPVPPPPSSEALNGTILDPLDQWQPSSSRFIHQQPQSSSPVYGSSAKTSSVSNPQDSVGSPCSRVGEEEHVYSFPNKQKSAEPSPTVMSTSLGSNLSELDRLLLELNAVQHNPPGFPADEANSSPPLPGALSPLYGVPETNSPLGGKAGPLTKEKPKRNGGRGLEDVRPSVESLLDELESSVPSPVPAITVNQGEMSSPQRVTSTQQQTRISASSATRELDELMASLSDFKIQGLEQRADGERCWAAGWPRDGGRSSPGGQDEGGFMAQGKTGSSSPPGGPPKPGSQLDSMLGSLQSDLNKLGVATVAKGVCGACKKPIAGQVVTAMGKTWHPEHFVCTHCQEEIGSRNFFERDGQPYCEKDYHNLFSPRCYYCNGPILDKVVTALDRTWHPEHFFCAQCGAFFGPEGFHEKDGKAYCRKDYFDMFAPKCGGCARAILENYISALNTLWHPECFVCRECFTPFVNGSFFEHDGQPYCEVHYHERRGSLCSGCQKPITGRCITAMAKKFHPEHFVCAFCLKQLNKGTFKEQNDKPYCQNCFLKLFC
UniProt Q14761: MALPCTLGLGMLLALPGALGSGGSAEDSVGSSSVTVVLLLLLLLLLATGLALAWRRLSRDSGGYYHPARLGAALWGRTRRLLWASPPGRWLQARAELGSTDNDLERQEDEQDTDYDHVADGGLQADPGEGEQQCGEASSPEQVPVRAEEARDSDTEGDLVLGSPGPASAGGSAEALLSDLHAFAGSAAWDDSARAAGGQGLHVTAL
UniProt Q6Y1H2: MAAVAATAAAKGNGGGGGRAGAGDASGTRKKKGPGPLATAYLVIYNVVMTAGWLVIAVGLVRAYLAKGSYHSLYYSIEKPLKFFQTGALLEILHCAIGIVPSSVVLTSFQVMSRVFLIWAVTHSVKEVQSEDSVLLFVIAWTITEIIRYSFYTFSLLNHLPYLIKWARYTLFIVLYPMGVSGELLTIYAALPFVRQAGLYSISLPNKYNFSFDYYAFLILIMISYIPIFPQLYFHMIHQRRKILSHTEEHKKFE
UniProt P43378: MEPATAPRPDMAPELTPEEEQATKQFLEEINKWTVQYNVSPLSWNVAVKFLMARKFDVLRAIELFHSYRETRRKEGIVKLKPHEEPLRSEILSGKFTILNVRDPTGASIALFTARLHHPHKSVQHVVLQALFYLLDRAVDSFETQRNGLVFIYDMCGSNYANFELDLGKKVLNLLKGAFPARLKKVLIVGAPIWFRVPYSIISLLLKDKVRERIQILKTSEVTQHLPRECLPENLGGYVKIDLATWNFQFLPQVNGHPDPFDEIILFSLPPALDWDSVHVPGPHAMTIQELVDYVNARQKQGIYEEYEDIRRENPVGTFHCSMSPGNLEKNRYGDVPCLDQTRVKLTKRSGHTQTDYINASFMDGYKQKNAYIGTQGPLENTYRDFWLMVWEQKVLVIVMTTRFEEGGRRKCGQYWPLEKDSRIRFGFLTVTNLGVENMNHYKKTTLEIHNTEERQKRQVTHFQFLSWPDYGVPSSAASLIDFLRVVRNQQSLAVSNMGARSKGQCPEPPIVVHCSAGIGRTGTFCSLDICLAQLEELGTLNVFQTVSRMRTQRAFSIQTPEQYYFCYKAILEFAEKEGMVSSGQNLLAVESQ
UniProt Q99708: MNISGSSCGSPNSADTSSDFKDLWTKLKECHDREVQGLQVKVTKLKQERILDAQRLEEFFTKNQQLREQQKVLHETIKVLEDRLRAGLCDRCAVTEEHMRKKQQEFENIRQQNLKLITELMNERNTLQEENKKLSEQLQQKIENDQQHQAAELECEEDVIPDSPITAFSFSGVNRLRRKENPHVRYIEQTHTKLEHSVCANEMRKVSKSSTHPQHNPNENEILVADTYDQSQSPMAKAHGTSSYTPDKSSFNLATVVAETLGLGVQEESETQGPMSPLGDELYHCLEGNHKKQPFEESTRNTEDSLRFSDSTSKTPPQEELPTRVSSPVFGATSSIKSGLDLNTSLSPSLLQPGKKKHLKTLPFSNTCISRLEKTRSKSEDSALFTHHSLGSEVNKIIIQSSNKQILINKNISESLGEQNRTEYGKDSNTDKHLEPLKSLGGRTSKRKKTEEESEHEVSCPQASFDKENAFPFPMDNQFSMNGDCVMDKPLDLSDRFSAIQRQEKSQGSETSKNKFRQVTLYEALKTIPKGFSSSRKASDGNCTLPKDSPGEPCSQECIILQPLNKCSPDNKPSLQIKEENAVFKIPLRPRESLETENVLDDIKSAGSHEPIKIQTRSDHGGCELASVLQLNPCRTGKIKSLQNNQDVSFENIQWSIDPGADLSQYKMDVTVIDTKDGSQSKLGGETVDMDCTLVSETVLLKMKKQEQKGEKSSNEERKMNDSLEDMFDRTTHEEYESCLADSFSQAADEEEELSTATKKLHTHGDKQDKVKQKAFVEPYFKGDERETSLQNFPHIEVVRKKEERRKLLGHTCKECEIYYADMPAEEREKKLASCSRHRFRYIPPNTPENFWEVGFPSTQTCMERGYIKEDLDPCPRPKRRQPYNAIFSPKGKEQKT
UniProt P11216: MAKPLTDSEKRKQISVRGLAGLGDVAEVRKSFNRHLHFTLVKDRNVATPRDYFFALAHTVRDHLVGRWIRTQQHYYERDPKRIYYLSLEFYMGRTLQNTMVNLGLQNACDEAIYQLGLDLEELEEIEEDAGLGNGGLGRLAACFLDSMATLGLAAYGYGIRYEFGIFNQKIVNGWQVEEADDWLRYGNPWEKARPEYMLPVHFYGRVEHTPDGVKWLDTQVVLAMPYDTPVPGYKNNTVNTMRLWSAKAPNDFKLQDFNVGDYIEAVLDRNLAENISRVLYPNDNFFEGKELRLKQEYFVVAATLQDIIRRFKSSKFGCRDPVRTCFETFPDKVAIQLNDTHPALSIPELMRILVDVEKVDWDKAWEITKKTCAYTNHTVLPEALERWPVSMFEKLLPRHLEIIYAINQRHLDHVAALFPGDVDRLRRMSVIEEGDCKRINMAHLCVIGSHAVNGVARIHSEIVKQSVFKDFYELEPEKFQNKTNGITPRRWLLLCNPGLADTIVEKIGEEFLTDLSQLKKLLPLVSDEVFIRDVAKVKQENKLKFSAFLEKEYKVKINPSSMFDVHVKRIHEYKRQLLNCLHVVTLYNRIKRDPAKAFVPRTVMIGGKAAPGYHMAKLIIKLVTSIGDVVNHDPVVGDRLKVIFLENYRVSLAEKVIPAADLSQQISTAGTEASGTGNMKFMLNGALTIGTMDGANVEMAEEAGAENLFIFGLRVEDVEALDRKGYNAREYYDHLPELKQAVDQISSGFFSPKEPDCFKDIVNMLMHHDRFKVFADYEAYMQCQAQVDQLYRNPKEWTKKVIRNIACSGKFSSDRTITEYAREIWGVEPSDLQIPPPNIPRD
UniProt Q96AX2: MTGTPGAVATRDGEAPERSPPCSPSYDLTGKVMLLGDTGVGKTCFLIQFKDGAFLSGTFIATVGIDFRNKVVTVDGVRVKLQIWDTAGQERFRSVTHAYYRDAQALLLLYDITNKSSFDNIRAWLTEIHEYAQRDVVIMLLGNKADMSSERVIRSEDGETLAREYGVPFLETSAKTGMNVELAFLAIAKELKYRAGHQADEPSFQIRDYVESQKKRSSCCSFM
UniProt P61006: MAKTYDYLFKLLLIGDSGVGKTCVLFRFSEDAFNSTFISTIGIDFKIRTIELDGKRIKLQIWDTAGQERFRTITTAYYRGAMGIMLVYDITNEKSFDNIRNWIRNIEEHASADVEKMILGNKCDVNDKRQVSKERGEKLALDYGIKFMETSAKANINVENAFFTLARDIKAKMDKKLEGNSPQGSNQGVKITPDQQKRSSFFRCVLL
UniProt Q9Y2R2, whole entry: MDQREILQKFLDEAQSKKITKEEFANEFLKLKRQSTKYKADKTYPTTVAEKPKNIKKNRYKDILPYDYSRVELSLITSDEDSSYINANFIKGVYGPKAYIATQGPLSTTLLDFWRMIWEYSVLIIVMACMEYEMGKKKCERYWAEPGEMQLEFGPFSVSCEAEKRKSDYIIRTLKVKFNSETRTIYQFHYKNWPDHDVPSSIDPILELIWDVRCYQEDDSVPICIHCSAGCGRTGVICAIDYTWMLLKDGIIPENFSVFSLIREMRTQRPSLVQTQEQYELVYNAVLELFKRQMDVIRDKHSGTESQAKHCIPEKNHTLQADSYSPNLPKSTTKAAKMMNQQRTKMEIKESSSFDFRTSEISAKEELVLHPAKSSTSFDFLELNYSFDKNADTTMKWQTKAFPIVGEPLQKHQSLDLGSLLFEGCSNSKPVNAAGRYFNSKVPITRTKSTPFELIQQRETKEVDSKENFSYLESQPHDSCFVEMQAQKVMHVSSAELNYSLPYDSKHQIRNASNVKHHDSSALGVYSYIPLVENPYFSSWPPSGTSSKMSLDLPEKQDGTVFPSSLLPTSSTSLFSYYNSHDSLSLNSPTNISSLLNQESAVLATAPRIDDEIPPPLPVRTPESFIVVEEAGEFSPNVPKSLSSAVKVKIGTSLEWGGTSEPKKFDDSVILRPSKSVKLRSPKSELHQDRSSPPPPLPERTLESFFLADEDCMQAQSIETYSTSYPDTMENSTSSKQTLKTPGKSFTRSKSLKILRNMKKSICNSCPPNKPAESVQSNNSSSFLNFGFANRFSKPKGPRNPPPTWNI
UniProt P20962: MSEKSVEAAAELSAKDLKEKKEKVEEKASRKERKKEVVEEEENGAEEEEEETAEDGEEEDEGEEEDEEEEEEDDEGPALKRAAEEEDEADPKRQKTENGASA

Compound in the assay: COc1ccc(Cn2ccc3ccc(C(=O)NO)cc32)cc1
The experiment in a line: dose-dependent thermal stabilisation call (2D-TPP, DLPTP, 10% FDR) (binary (1 = stabilised)); higher = stabilised by the compound. As to conditions: system: HL-60 intact cells; concentration range 0.04-10 µM.
With RAB11B (UniProt Q15907), the “dose-dependent thermal stabilisation call” value was inactive: 0.

For RBM7 (UniProt Q9Y580), the “dose-dependent thermal stabilisation call” value is inactive: 0.

Consider RB1CC1 (UniProt Q8TDY2), for which the “dose-dependent thermal stabilisation call” value is inactive: 0.

Regarding QRICH1 (UniProt Q2TAL8), the “dose-dependent thermal stabilisation call” value was inactive: 0.

For RBM26 (UniProt Q5T8P6), the “dose-dependent thermal stabilisation call” value is inactive: 0.

With PXN (UniProt P49023), the “dose-dependent thermal stabilisation call” value is inactive: 0.

On to PTPRCAP (UniProt Q14761), for which the “dose-dependent thermal stabilisation call” value was inactive: 0.

In the case of RAB2A (UniProt P61019), the “dose-dependent thermal stabilisation call” value was inactive: 0.

For PTPLB (UniProt Q6Y1H2), the “dose-dependent thermal stabilisation call” value is inactive: 0.

Take PYROXD1 (UniProt Q8WU10): the “dose-dependent thermal stabilisation call” value was inactive: 0.

Turning to PTPN9 (UniProt P43378), the “dose-dependent thermal stabilisation call” value is inactive: 0.

Take RBBP8 (UniProt Q99708): the “dose-dependent thermal stabilisation call” value was inactive: 0.

Take PYGL (UniProt P06737): the “dose-dependent thermal stabilisation call” value was inactive: 0.

Consider RAB7A (UniProt P51149), for which the “dose-dependent thermal stabilisation call” value was inactive: 0.

As for RAB14 (UniProt P61106), the “dose-dependent thermal stabilisation call” value was inactive: 0.

On to PSMC3IP (UniProt Q9P2W1), for which the “dose-dependent thermal stabilisation call” value was inactive: 0.

On to PYGB (UniProt P11216), for which the “dose-dependent thermal stabilisation call” value is inactive: 0.

In the case of RAD51AP1 (UniProt Q96B01), the “dose-dependent thermal stabilisation call” value was inactive: 0.

Take PRPF38B (UniProt Q5VTL8): the “dose-dependent thermal stabilisation call” value is inactive: 0.

PTEN (UniProt P60484): the “dose-dependent thermal stabilisation call” value was inactive: 0.

As to RAB37 (UniProt Q96AX2), the “dose-dependent thermal stabilisation call” value is inactive: 0.

Regarding RAB8A (UniProt P61006), the “dose-dependent thermal stabilisation call” value is inactive: 0.

Consider PTPN22 (UniProt Q9Y2R2), for which the “dose-dependent thermal stabilisation call” value is inactive: 0.

Take PTMS (UniProt P20962): the “dose-dependent thermal stabilisation call” value is inactive: 0.

Regarding PTGES3 (UniProt Q15185), the “dose-dependent thermal stabilisation call” value was inactive: 0.

On to RAP2A (UniProt P10114), for which the “dose-dependent thermal stabilisation call” value is inactive: 0.

For the target RAD51C (UniProt O43502), the “dose-dependent thermal stabilisation call” value is inactive: 0.

The record behind these values is the supplement of paper PMC7666118.
